Broadly, the IC50 is the concentration that inhibits the measured activity by half.

Molecules are shown by their SMILES. Like-named read-outs stand apart in the source and are kept apart here. A value given as a limit tells only on which side of the number the result lay.

The text below walks through data of US8809350B2, “Purine and pyrimidine CDK inhibitors and their use for the treatment of autoimmune diseases” (priority 2004, dated 2014).

Assay [1] concerns tumour cell panels. Put plainly: In-house 72 hour cytotoxicity assays on tumour cell panels. The format is cell-based.
In assay [2] the test system is PKC.

As for `CCC(CO)Nc1nc(NCc2ccccc2)c2ncn(C(C)C)c2n1` (stereo not drawn) [Compound 2], the half-maximal inhibitory concentration (IC50) in assay [1] (72 h, read-out: IC50 Average) amounted to 16.4 µM; in assay [1] (PBMC, read-out: IC50 Used), 16 µM.
Regarding `CC[C@H](CO)Nc1nc(NCc2ccccc2)c2ncn(C(C)C)c2n1` [roscovitine, 2-[(1-ethyl-2-hydroxyethyl)amino]-6-benzylamine-9-isopropylpurine], the IC50 in assay [2] was more than 50 µM.
